Results reported in paper PMC8738768.
Results are given in words; binding and its absence hold for the method and conditions named. In cells and extracts the contact can be indirect. Some entries that bind do so weakly or less than the wild type.

The chains behind the UniProt entries cited, without tags or fusion partners. Residues count along the entry.
UniProt P10809, residues 27-573: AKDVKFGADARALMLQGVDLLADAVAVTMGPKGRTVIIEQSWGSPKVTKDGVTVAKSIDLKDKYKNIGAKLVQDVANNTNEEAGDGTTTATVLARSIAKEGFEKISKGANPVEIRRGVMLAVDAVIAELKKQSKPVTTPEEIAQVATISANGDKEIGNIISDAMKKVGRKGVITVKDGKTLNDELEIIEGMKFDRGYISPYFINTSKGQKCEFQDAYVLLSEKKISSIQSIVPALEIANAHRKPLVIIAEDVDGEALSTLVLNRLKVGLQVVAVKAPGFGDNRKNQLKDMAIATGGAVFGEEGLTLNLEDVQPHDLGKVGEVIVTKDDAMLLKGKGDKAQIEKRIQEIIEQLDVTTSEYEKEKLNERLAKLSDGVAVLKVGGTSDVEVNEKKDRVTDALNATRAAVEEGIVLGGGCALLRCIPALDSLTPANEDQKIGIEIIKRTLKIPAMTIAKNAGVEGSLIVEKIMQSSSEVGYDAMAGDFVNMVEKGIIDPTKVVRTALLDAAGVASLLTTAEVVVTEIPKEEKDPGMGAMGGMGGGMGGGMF

Target: HSP60 (Heat shock 60 kDa protein 1) (human (endogenous in A375)) (UniProt P10809)
Test: co-IP; cytosolic fraction of A375 cells, 500 μg of proteins with primary antibody overnight at 4 °C, Protein AG Magnetic Beads 1.5 h at RT, western blot; basal condition or 2 h after MTX with or without KIRA6 (1 μM)

binding: binds
B1: IKKβ (protein, UniProt O14920 1-756)
chain: MSWSPSLTTQTCGAWEMKERLGTGGFGNVIRWHNQETGEQIAIKQCRQELSPRNRERWCLEIQIMRRLTHPNVVAARDVPEGMQNLAPNDLPLLAMEYCQGGDLRKYLNQFENCCGLREGAILTLLSDIASALRYLHENRIIHRDLKPENIVLQQGEQRLIHKIIDLGYAKELDQGSLCTSFVGTLQYLAPELLEQQKYTVTVDYWSFGTLAFECITGFRPFLPNWQPVQWHSKVRQKSEVDIVVSEDLNGTVKFSSSLPYPNNLNSVLAERLEKWLQLMLMWHPRQRGTDPTYGPNGCFKALDDILNLKLVHILNMVTGTIHTYPVTEDESLQSLKARIQQDTGIPEEDQELLQEAGLALIPDKPATQCISDGKLNEGHTLDMDLVFLFDNSKITYETQISPRPQPESVSCILQEPKRNLAFFQLRKVWGQVWHSIQTLKEDCNRLQQGQRAAMMNLLRNNSCLSKMKNSMASMSQQLKAKLDFFKTSIQIDLEKYSEQTEFGITSDKLLLAWREMEQAVELCGRENEVKLLVERMMALQTDIVDLQRSPMGRKQGGTLDDLEEQARELYRRLREKPRDQRTEGDSQEMVRLLLQAIQSFEKKVRVIYTQLSKTVVCKQKALELLPKVEEVVSLMNEDEKTVVRLQEKRQKELWNLLKIACSKVRGPVSGSPDSMNASRLSQPGQLMSQPSTASNSLPEPAKKSEELVAEAHNLCTLLENAIQDTVREQDQSFTALDWSWLQTEEEEHSCLEQAS
